In test [1] the target is T1, mouse Ptch1 (pcDNA3-mPtch1) (mouse) (UniProt Q61115).
T1 sequence: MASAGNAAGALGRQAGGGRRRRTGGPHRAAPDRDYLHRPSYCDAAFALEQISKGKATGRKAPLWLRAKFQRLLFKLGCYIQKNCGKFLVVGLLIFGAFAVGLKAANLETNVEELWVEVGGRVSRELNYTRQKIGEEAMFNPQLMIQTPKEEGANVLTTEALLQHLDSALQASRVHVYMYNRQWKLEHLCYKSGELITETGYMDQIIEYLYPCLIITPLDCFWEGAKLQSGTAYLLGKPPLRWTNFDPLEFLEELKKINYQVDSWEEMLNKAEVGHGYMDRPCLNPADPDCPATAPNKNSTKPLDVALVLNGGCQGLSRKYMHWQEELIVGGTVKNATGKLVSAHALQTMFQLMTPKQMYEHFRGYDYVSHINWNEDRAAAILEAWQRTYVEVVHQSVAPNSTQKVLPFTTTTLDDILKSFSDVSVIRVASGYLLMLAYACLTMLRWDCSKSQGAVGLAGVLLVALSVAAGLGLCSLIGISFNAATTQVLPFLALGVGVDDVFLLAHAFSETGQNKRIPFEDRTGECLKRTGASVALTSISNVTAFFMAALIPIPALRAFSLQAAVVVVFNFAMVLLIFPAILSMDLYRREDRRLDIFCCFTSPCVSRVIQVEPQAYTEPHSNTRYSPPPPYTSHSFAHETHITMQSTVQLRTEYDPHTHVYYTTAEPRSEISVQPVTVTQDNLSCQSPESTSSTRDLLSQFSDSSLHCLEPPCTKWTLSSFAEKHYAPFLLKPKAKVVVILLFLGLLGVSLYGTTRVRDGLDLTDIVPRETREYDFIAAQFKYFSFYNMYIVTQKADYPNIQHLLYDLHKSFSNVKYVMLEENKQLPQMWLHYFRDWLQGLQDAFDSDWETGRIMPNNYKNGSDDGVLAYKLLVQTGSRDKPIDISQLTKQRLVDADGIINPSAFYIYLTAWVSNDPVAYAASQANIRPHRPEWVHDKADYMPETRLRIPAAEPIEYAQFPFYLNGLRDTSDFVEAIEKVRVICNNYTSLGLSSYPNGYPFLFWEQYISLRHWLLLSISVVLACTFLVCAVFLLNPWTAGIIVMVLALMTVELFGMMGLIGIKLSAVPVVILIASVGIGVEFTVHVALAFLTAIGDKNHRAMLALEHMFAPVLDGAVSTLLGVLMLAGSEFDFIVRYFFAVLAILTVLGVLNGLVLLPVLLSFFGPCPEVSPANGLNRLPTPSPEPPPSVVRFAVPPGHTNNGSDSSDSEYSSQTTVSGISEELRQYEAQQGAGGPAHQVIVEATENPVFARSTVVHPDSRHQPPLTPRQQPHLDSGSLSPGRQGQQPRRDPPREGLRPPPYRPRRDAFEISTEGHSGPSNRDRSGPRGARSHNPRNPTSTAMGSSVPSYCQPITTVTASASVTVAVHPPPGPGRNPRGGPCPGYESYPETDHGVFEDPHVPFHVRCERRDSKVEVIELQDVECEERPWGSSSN
Put plainly: co-IP; NIH3T3/Cas9 Ptch1 KO cells transfected with mouse Ptch1, unstimulated and 40 min after Shh (partial release at 40 min); IP of Ptch1 and reciprocal IP of endogenous Boc, Western blot. In general terms: In western blotting, separated proteins are transferred to a membrane and probed.

By UniProt entry, the sequences of proteins in these tests, tags left out. Residues count along the entry.
UniProt P56726, residues 33-793: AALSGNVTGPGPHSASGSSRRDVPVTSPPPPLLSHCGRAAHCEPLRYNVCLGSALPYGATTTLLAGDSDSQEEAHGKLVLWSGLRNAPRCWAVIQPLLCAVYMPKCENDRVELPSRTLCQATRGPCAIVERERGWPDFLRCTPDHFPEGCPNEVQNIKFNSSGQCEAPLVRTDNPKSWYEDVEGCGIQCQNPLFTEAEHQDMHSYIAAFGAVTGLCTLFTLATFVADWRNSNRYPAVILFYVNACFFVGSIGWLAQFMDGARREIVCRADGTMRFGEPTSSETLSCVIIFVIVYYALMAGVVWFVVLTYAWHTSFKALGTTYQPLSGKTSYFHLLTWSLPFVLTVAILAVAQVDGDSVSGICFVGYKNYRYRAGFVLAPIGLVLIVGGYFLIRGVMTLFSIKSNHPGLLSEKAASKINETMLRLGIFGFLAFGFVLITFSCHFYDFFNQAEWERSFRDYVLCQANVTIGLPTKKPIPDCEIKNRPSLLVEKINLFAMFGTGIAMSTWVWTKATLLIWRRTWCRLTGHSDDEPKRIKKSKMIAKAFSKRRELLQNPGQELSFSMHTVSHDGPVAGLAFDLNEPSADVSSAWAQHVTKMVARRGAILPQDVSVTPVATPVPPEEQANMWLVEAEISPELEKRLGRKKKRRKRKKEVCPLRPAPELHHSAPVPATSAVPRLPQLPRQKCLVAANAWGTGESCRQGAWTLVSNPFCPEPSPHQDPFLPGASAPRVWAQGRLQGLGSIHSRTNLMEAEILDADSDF

Test [2] has as its target T1, mouse Ptch1 (pcDNA3-mPtch1) (mouse). The experiment in a line: co-IP; NIH3T3/Cas9 Ptch1 KO cells transfected with mouse Ptch1, stimulated with Shh for 24 h; IP of Ptch1 and reciprocal IP of endogenous Boc, Western blot.
In test [3] the target is T2, mouse Ptch2, Myc-tagged (pCMV6-mPtch2-MycDDK) (mouse) (UniProt O35595).
T2 sequence: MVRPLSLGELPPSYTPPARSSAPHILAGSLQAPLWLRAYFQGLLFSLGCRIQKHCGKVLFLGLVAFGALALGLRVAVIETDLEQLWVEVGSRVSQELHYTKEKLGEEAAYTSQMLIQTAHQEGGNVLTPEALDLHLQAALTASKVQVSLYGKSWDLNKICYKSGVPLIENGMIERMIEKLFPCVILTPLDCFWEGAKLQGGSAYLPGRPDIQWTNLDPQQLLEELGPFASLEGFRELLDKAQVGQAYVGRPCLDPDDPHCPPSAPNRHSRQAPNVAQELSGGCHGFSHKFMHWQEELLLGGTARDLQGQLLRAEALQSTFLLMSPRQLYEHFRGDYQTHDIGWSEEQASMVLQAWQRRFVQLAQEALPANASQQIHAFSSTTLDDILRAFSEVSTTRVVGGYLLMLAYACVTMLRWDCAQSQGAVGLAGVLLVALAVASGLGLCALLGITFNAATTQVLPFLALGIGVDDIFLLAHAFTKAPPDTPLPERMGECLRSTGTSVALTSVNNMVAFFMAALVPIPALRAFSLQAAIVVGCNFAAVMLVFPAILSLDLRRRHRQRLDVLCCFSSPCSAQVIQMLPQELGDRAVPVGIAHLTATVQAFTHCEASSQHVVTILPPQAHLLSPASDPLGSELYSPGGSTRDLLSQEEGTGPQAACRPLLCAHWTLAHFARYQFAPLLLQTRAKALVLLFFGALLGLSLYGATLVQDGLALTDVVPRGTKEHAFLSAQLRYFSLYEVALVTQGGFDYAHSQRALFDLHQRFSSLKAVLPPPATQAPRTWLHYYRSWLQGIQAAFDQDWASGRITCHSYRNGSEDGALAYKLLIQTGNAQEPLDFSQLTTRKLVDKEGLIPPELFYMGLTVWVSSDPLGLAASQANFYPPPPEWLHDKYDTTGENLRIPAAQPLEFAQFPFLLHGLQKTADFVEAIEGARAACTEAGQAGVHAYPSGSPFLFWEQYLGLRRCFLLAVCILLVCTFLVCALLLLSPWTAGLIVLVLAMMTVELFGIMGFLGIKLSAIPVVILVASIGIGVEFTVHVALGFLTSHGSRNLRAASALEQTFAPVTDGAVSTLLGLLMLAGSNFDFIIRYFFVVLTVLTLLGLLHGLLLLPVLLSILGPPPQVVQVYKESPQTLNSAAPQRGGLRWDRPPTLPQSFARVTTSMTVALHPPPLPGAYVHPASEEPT
Put plainly: co-IP; NIH3T3/Cas9 Gas1 KO cells transfected with Myc-tagged Ptch2, without and with Shh for 40 min; IP with anti-Myc antibody, Western blot.

Results are given in words; binding and its absence hold for the method and conditions named. In cells and extracts the contact can be indirect. Some results given as binding are weak or reduced against the parent protein; the word gives no strength. For part of these data: Tags and fused reporters may be left off the sequences shown.

For the substance “Smoothened (Smo), endogenous (from UniProt P56726 33-793) (receptor)”, the binding result was “binds” in test [1], “no binding (condition: after Shh for 24 h)” in test [2] and “binds” in test [3].

(Values after paper PMC7181751.)
